Source: patent publication US20040072268A1
These are yes or no findings as the source states them, for the method shown. Binding seen in cells or lysates may run through a third protein. Some entries that bind do so weakly or less than the wild type.

Chains of the proteins cited; added tags and fusions are not shown. Lines headed by an entry give the natural chain unless they say otherwise; changes in a name come on top.
UniProt P46736: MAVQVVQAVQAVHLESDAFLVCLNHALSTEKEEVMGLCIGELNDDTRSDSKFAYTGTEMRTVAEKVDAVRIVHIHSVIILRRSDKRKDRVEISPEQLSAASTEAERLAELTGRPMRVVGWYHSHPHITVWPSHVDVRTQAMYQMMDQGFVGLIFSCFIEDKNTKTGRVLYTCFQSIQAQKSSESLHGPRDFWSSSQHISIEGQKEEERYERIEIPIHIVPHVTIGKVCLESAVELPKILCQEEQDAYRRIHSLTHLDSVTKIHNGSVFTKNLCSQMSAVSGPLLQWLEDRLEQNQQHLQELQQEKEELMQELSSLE
UniProt P38398: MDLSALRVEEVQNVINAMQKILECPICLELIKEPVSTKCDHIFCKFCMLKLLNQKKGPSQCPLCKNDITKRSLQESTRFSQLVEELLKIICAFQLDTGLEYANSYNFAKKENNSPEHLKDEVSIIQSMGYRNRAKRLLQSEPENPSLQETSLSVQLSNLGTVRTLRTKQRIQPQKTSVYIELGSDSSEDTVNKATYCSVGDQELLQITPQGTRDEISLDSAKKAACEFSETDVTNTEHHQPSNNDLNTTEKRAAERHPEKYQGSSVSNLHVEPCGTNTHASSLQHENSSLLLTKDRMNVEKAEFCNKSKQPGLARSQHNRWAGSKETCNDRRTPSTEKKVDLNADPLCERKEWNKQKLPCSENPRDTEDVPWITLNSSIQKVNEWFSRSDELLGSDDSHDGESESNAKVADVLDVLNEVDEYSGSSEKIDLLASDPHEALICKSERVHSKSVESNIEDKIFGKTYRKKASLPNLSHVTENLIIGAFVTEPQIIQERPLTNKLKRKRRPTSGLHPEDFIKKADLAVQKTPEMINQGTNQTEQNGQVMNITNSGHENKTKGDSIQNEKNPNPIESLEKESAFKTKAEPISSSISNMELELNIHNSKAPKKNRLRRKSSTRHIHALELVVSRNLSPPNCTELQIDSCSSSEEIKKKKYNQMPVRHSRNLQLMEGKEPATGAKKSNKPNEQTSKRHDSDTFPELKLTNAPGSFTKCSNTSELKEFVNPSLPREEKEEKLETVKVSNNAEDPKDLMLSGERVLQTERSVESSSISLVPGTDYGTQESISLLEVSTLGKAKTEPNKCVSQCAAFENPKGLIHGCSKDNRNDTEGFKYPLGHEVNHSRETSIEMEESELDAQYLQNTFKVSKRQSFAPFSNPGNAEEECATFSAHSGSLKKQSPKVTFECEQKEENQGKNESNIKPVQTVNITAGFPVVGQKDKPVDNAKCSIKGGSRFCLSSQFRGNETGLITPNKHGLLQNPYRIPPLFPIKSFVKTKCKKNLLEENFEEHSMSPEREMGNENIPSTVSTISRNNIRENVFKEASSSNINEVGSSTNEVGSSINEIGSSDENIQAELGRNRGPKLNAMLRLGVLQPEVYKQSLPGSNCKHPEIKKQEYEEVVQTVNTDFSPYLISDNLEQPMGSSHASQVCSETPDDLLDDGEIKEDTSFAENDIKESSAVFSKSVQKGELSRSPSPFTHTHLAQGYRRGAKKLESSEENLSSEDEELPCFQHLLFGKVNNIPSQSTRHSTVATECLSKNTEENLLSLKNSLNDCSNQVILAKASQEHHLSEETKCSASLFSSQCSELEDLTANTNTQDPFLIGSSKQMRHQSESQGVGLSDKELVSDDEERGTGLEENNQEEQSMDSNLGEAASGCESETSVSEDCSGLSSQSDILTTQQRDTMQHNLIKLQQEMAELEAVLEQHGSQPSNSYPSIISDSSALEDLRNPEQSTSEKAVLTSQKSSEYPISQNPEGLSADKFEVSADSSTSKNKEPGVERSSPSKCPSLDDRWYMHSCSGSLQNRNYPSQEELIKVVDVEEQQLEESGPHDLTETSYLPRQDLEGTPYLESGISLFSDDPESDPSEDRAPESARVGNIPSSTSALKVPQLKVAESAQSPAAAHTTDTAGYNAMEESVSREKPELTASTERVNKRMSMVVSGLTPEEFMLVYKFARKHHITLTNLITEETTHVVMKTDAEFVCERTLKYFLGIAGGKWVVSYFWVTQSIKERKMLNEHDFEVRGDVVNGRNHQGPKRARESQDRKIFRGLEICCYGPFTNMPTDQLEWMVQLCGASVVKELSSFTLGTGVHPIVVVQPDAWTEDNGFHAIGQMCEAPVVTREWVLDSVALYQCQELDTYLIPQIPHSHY
UniProt Q99728: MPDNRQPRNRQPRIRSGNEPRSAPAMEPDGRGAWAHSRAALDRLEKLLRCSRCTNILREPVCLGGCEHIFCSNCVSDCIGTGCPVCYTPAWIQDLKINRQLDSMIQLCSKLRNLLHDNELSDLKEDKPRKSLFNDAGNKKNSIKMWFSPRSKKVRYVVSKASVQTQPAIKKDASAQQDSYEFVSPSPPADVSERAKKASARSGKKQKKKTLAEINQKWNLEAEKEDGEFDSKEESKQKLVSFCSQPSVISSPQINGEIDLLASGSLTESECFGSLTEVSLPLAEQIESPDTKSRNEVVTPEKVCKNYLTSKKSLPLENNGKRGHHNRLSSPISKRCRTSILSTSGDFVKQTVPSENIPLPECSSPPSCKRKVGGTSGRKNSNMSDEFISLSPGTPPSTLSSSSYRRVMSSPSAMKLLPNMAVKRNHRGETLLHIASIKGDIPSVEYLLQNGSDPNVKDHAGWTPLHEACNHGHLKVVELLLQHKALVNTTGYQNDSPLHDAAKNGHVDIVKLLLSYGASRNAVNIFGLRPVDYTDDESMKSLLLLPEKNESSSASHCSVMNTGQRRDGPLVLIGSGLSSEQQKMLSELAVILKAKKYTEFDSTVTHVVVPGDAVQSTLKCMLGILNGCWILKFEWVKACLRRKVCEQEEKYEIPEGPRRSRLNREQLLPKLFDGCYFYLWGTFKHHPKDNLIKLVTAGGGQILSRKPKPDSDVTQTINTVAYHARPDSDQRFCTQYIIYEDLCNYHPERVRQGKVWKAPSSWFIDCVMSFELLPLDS

What was measured:
[1] = target: T1, BRCC130 (human (endogenous protein of human H1299 cells)) (UniProt Q86UV5); test: affinity purification of the truncated BARD1 complex from stable cell lines (co-purification; may be indirect)
T1 sequence: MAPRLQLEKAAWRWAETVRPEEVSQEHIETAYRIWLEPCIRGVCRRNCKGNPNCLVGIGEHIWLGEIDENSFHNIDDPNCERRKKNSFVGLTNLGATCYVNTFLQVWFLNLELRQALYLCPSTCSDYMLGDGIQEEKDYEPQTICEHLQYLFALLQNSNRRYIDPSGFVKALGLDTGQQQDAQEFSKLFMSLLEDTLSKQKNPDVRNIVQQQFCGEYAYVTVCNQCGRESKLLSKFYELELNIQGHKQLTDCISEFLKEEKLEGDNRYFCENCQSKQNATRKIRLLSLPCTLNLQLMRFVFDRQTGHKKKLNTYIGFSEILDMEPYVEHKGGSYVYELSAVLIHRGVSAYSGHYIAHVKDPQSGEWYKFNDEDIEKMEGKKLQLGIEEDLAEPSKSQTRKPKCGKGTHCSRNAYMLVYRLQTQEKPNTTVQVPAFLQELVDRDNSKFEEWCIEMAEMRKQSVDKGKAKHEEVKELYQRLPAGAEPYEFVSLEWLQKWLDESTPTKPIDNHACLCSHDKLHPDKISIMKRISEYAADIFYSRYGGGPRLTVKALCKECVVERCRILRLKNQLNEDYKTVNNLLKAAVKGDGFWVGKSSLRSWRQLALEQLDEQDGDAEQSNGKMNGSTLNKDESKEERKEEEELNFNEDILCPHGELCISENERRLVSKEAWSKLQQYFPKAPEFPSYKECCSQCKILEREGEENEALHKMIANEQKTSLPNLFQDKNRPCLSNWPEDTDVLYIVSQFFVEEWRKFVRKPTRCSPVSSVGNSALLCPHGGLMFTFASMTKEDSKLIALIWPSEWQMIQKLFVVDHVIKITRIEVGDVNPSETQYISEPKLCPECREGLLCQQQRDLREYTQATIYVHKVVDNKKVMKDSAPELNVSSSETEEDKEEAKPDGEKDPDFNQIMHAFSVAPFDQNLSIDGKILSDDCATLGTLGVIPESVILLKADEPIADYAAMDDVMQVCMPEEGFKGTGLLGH

[2] = target: T2, BRCC140 (human (endogenous protein of human H1299 cells)) (UniProt Q86YC2); test: as above
T2 sequence: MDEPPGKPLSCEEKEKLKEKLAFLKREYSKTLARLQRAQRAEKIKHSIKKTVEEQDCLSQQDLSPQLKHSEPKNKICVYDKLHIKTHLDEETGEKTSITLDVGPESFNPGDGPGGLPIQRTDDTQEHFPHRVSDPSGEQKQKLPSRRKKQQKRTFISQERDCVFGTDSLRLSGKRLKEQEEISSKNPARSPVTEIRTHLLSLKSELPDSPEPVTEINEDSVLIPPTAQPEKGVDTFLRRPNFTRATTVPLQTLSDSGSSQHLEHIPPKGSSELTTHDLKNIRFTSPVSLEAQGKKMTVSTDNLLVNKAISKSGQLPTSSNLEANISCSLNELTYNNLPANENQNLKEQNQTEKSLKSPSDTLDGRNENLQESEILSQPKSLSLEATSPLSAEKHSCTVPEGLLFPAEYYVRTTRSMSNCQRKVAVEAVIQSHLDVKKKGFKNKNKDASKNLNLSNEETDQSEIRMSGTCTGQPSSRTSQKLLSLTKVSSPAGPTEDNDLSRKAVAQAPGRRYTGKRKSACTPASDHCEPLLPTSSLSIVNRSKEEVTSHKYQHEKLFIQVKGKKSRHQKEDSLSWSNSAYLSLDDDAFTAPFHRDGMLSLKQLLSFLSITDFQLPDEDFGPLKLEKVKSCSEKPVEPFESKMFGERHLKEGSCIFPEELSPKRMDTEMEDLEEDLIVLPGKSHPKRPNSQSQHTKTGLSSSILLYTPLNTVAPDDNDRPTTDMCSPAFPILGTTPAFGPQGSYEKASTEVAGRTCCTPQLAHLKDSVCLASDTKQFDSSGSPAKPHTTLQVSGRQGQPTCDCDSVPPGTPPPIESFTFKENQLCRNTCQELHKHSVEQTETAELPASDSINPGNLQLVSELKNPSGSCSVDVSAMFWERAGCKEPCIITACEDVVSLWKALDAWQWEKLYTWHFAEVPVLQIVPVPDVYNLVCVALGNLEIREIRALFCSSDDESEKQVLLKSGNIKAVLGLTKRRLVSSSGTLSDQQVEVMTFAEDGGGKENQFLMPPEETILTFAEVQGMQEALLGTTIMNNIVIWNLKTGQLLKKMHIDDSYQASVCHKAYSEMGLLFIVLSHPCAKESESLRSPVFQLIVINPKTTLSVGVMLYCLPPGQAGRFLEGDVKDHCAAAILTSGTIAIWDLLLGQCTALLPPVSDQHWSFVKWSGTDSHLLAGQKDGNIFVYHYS

[3] = target: BRCC300 (human (endogenous protein of human H1299 cells)); test: as above
[4] = target: BRCC36 (endogenous) (Homo sapiens) (UniProt P46736); test: as above
[5] = target: T3, BRCC80 (human (endogenous protein of human H1299 cells)) (UniProt Q96RL1); test: as above
T3 sequence: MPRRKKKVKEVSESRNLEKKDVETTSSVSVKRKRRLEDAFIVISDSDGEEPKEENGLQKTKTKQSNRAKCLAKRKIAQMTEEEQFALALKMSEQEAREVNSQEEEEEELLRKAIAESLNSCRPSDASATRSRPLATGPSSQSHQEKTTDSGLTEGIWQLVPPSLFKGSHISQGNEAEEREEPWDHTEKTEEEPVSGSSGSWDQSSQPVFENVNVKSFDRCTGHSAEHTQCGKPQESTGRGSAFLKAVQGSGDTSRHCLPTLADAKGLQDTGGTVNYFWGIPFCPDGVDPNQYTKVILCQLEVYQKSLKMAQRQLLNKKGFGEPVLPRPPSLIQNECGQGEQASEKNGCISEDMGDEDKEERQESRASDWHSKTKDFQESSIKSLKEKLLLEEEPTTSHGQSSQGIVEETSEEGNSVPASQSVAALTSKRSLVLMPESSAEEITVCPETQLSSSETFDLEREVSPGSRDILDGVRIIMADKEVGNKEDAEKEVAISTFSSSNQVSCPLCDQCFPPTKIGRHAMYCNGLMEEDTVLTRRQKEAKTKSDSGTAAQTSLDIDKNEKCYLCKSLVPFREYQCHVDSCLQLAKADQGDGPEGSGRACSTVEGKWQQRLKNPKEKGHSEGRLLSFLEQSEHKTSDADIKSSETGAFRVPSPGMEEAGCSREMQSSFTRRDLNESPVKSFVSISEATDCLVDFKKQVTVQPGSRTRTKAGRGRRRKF

[6] = target: BRE (human (endogenous protein of human 293 / H1299 cells)); test: as above
[7] = target: GST-BRCA1 (1-639) (Homo sapiens (Human)) (UniProt P38398); test: GST pull-down from bacterial whole cell extract, anti-FLAG western blot
[8] = target: GST-BRCA1(1-639)/FLAG®-BARD1 heterodimer (Homo sapiens (Human)) (UniProt P38398); test: as above
[9] = target: GST-BRCA1 fragment F3 (BRCA1 residues 502-802) (Homo sapiens (Human)) (UniProt P38398); test: GST pull-down of (His)6-FLAG-BRCC36 with GST-BRCA1 fragment, anti-FLAG western blot
[10] = target: GST-BRCA1 fragment F4 (BRCA1 residues 758-1064) (Homo sapiens (Human)) (UniProt P38398); test: as above

Measured: binding

truncated form of BARD1 (1-398) (from UniProt Q99728 1-398)
binds: [1] | [2] | [3] | [4] | [5] | [6]

(His)6-FLAG®-BRCC36 protein (from UniProt P46736 1-316)
binds: [7] | [8] | [9] | [10]
